# Measurements as given in PubChem BioAssay AID540256 (National Center for Advancing Translational Sciences (NCATS), 2011).
# In all, about 300,000 compounds went through this assay and about 3,700 (1.2%) were called active. The inconclusive results got no clear call from the source; some entries with a clear call stand among them for comparison. The call rests on the fitted dose curve; tested in HEK293 cells. Where the call is inconclusive, the potency comes from a doubtful curve fit.
# Assay: qHTS for Inhibitors of binding or entry into cells for Lassa Virus; further: nearly all actives have a fitted effect of over 50% in size
# Settings: Lassa virus pseudotype entry inhibition, cell reporter; activity change, negative = inhibition: at 37.9 µM (top of the series) unless noted
# On the % scale 0 is the no-effect control and ±100 the full control effect; potency means the concentration at half of the fitted maximal effect.
Structure (SMILES),Potency,"activity change, negative = inhibition"
Cc1ccc(C2CC(=O)NC(SCC(=O)OCc3ccccc3)=C2C#N)o1 (stereo unspecified),"inconclusive: 35.5 µM [inhibitor, single point]",
CCOC(=O)/C=C1\SCC(=O)N1CC(=O)Nc1cccc(F)c1,"inconclusive: 11.2 µM [inhibitor, partial curve, poor fit]",
Cc1nn(C)c(C)c1N=Cc1c(O)ccc2ccccc12,,inactive: -8.66%
COc1ccc(NC(=O)c2cccc(N3CCCS3(=O)=O)c2)c(OC)c1,,inactive: 9.03% [at 46.1 µM]
Cc1cccc(-c2cc(C(=O)Nc3ccc4c(c3)OCCO4)c3ccccc3n2)c1,,inactive: -23.6%
Cc1ccc(S(=O)(=O)N2CCN(Cc3ccccc3Cl)CC2)cc1,,inactive: -19.6% [at 46.1 µM]
COc1ccc(C(OCC(O)CNCCc2ccc(S(N)(=O)=O)cc2)c2ccc(OC)cc2)cc1 (stereo unspecified),"inconclusive: 25.1 µM [inhibitor, single point]",
Cn1c(=NC(=O)CCl)sc2ccccc21,"inconclusive: 20 µM [inhibitor, single point]",
CSc1ccc(CN(C)CC(=O)NCc2ccccc2)cc1,"inconclusive: 7.94 µM [inhibitor, partial curve, poor fit]",
O=C(CSc1ccccc1F)NC(=O)c1ccccc1Br,"inconclusive: 25.1 µM [activator, single point]",
CC(=O)Nc1ccc(NC(=O)C2(C)CC2(Cl)Cl)cc1 (stereo unspecified),"inconclusive: 5.62 µM [inhibitor, single point]",
Cn1c(N)nc2nc[nH]c2c1=S,,inactive: -12.1%
Cc1ccc(/C=N/NC(=O)CCCOc2ccc(Cl)cc2Cl)cc1,"inconclusive: 11.2 µM [inhibitor, partial curve, poor fit]",
CC(C)c1ccc(/C=N/NC(=O)c2ccccn2)cc1,"inconclusive: 3.55 µM [inhibitor, full curve]",
CCOC(=O)c1c(NC(=O)c2cc(=O)c3cc(C)ccc3o2)sc2c1CCCC2,"inconclusive: 3.98 µM [inhibitor, single point]",
O=C(CN1CCOCC1)NNc1c2ccccc2nc2ccccc12,,inactive: -17.8% [at 46.1 µM]
Cc1ccc(NC(=O)c2ccc(CSc3ncnc4nc[nH]c34)cc2)c(C)c1,active: 17.8 µM,
CCCOC1CCCN(C(=O)CCc2nnc(-c3ccc4c(c3)OCO4)o2)C1 (stereo unspecified),,inactive: 13.2%
CC(=O)N(C)c1ccc(NC(=O)C(Sc2ccccc2)c2ccccc2)cc1 (stereo unspecified),,inactive: -12.3% [at 46.1 µM]
COc1ccc(CNC(=O)c2noc3c2CCCCC3)cc1,,inactive: -21.5%
CC(C)(C)NCCOCCOc1ccccc1-c1ccccc1,"inconclusive: 35.5 µM [inhibitor, single point]",
Cc1ccc(CCNS(=O)(=O)c2ccc3c(c2)C(C(C)C)C(=O)N3)cc1 (stereo unspecified),,inactive: -19.2% [at 46.1 µM]
Cc1cc(=O)oc(C)c1C(=O)Nc1cnc2ccccc2c1,"inconclusive: 35.5 µM [activator, single point]",

Structure (SMILES),Potency,"activity change, negative = inhibition"
COc1ccc(-c2nc(SCC(=O)N(CC(C)C)c3c(N)n(Cc4ccccc4)c(=O)[nH]c3=O)n[nH]2)cc1,"inconclusive: 10 µM [inhibitor, partial curve, poor fit]",
Cc1c(Cl)cccc1NC(=S)N=Nc1c(O)n(CN2CCOCC2)c2ccccc12,"inconclusive: 11.2 µM [inhibitor, partial curve, poor fit]",
O=C(NCc1ccccc1)NCC12CC3CC(CC(C3)C1)C2,"inconclusive: 1.41 µM [inhibitor, full curve, poor fit]",
COc1ccc(N2C(=O)CC(NCCNc3ccc([N+](=O)[O-])cn3)C2=O)cc1 (stereo unspecified),,inactive: 23.4%
CCCc1ccc(C(=O)CCC(=O)O)cc1,"inconclusive: 5.62 µM [activator, single point]",
COC(=O)c1ccccc1NC(=O)c1nc(-c2ccc(C)cc2)n2c1CCCCC2,"inconclusive: 8.91 µM [activator, partial curve, poor fit]",
O=c1cc(-c2ccc3c(c2)OCCO3)oc2ccc(Cl)cc12,,inactive: 4.15%
Cn1c(=O)c([N+](=O)[O-])c(Oc2ccccc2)c2ccccc21,"inconclusive: 35.5 µM [inhibitor, single point]",
O=C(CCCN1C(=O)/C(=C/c2cccs2)SC1=S)Nc1cccc(C(=O)O)c1,,inconclusive: 14.4% [activator] [at 46.1 µM]
Cc1ccccc1C(=O)Nc1ccnn1C1CCN(Cc2cnn(C(C)C)c2)CC1,"inconclusive: 6.31 µM [activator, single point]",
O=C(CC12CC3CC(CC(C3)C1)C2)N/N=C/c1ccc([N+](=O)[O-])o1,active: 15.8 µM,
Cc1cccc(C)c1N1CC(=O)N(c2c(C)cccc2C)CC1=O,"inconclusive: 0.282 µM [activator, full curve, poor fit]",
CCCS(=O)(=O)Nc1ccc(Nc2c3ccccc3nc3ccccc23)c(OC)c1,active: 0.708 µM,
COC1=C(OC)C(=O)C(Sc2ccc3ccccc3c2)=CC1=O,"inconclusive: 15.8 µM [inhibitor, single point]",
CCOC(=O)c1cnn(-c2ccc(C(F)(F)F)cn2)c1N,"inconclusive: 6.51 µM [activator, single point]",
Cc1cccc(-n2ncc3c(NCc4ccco4)ncnc32)c1,"inconclusive: 35.5 µM [inhibitor, single point]",
Nc1nc(N)c(N=O)c(OCC2CCCCC2)n1,"inconclusive: 11.6 µM [inhibitor, partial curve]",
COc1cc(C(=O)NNC(=O)Nc2ccc([N+](=O)[O-])cc2)cc(OC)c1OC,,inactive: -6.71% [at 46.1 µM]
COc1ccc(NC(=O)c2ccc(-c3ccc([N+](=O)[O-])cc3)o2)cc1OC,"inconclusive: 2.59 µM [inhibitor, single point]",
CCCOc1ccc(CN(C)c2ncnc(N)n2)cc1,"inconclusive: 15.8 µM [inhibitor, single point]",
O=C(CCOc1ccccc1)N1CCN(c2ccc(O)cc2)CC1,"inconclusive: 7.94 µM [inhibitor, partial curve, poor fit]",
COc1ccc(C(=O)Nc2ccc(NC(=O)C3CCCCC3)nc2)cc1,,inactive: -1.32%
COc1ccc(/C=C/C(=O)Nc2ccc(C34CC5CC(CC(O)(C5)C3)C4)cc2)cc1OC,"inconclusive: 20.6 µM [inhibitor, single point]",

# A draw from above in order of number of heavy atoms, falling.
Structure (SMILES),Potency,"activity change, negative = inhibition"
Cc1c(Cl)cccc1NC(=S)N=Nc1c(O)n(CN2CCOCC2)c2ccccc12,"inconclusive: 11.2 µM [inhibitor, partial curve, poor fit]",
COC1=C(OC)C(=O)C(Sc2ccc3ccccc3c2)=CC1=O,"inconclusive: 15.8 µM [inhibitor, single point]",
O=c1cc(-c2ccc3c(c2)OCCO3)oc2ccc(Cl)cc12,,inactive: 4.15%
